Earlier results in publication PMC10210398, “Genomic, functional and structural analyses elucidate evolutionary innovation within the sea anemone 8 toxin family” (BMC Biology, 2023).
pKd: −log10 of the molar value.

Molecular target: hKV10.1
Settings: read-out: Kd (positive control concentration equivalent to Kd); KV10.1; no reference given; cited from earlier work
Procedure: Voltage protocols: For measurement of hKV1.1–1.3 and hKV10.1, currents, voltage steps to + 50 mV, were applied from a holding potential of − 120 mV every 15 or 30 s and the peak current was measured. Channels were activated by a series of depolarisation pulses to + 50 mV from a holding potential of − 120 mV. For KV1.1, 50-ms-long activating stimuli were used every 15 s. Due to the highly variable activation kinetics of KV1.2 [145] 200-ms-long pulses were applied every 15 s to maximise the open probability of the channel.

For `COc1ccc(CCN2CCC(Nc3nc4ccccc4n3Cc3ccc(F)cc3)CC2)cc1` [Astemizole, astemizole, reference compound], the pKd is given as 5.70.
